Source: PMC5472786
No constants are given. Whether binding was seen depends on the method and setting. In cells and extracts the contact can be indirect. Some binding calls cover weakened binding; strength is not graded here.

Chains of the proteins cited; added tags and fusions are not shown.
UniProt P53115: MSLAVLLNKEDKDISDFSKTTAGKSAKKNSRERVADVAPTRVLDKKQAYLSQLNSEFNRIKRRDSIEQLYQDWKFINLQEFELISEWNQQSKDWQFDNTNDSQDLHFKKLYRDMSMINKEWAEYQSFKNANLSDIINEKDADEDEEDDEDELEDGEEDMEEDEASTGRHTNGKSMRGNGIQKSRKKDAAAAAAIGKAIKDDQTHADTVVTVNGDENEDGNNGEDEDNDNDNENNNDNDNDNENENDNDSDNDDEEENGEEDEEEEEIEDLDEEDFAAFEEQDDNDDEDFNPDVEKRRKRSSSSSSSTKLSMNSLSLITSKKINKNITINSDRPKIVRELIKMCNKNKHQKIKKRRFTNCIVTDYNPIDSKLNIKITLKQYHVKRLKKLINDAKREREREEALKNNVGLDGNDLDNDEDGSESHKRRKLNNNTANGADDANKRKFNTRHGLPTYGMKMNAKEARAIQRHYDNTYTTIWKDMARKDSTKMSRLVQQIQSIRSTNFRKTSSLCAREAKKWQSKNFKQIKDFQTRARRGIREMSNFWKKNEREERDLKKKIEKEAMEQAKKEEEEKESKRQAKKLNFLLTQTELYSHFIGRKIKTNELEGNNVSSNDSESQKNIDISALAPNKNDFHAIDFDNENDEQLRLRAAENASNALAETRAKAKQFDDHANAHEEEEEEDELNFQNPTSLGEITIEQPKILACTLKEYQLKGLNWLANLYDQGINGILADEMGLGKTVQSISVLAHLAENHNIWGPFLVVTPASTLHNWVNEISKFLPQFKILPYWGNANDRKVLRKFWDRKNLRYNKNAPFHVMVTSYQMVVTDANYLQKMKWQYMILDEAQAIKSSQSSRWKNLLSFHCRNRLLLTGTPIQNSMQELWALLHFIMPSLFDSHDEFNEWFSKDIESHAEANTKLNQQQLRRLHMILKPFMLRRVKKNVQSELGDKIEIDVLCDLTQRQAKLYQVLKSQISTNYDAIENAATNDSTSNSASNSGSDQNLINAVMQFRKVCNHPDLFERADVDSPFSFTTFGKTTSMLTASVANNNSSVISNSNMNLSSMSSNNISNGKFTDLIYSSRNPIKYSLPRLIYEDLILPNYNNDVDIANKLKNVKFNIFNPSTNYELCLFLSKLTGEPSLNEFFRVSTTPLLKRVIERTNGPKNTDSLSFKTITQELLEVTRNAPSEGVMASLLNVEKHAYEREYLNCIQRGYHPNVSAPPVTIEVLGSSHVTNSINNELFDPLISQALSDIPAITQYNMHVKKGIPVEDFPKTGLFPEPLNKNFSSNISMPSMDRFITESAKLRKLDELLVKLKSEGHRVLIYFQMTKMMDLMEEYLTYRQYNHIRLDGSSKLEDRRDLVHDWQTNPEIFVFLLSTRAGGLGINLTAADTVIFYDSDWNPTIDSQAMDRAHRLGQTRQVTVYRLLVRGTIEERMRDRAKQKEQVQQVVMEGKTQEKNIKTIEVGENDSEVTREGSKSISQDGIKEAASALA

Molecular target: Ino80, catalytic subunit of the INO80 complex, with C-terminal double FLAG tag (Saccharomyces cerevisiae) (UniProt P53115)
Assay: co-IP; INO80 complex purified from yeast through the double FLAG tag on Ino80 (ANTI-FLAG M2 Affinity Gel, FLAG peptide elution); subunits seen on SDS-PAGE after DNA photo-crosslinking and label transfer, Arp4 told from Ies2 by immunoprecipitation of Arp4

B1: Ies2 (protein, UniProt P40154 1-320)
chain: MDSEASDIEAELSDSVSAGGEEYIDDDDYTEDIDDQIVTAKSSRRTARRSVPKGVRTSKRIRDKELSVEVDEDYDEEEDVLSPSKKRHLHTRSMDKRQVAATASEKSDIGDSKGNDGEIEDGILEEEESLEKELNRGGGKEVEKSEESYYAQNDVGQKGEEEQDGESGGYEDNEPSISKESDELVSVVNGNGNEEDDEVEATKENTTDSTRSTTTRSKMLLDLLEDGGSKKKLTDEEIQLRRAENARKRKNLSEKRLEEEKQDTINKLLKKRAGKSRSHLPNDDEKNDGSSSFVKPRRPYNSEGMTRILRRYEEDLFCTF
  binding: binds
